From the supplement of paper PMC6078165
Values are relative to the signal before dosing, not to a vehicle control; the signal also falls without drug.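 Labels refer to human fibroblasts, largely primary: uterine (C12385, HUF), lung (H6013), bone (Hs27A), adrenal (HADF), skin (WS1), plus mammary HMF and breast cancer-associated Hs343T. Cancer lines are basal-like or mesenchymal-like triple-negative breast cancer. The paper counts as hits responses shifting over 3x the replicate standard deviation. The tissue of the other fibroblasts is not given here.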

Test system: MDAMB231
Test: relative JC-1 red fluorescence (viability) vs pre-drug, coculture with fibroblast (fraction); higher = more viable cancer cells
Description: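 JC-1 labelled TNBC cells cocultured 1:1 (1,500 cells each) with CellTrace Violet stained primary or stromal fibroblasts in 384-well plates in FluoroBrite medium, treated with one of 42 anticancer drugs at 0.1, 1, 10 or 100 uM. JC-1 red fluorescence (mitochondrial integrity in cancer cells only) was read by plate reader every 8 h for 72 h. Values are normalised to each well's pre-drug value. The stock of one drug was tenfold lower, so its dose labels may be too high.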

CN(Cc1cnc2nc(N)nc(N)c2n1)c1ccc(C(=O)N[C@@H](CCC(=O)O)C(=O)O)cc1 [Methotrexate]
relative JC-1 red fluorescence
Conditions	8 h	16 h	24 h	32 h	40 h	48 h	56 h	64 h	72 h
0.1 µM, coculture fibroblast: C12385	0.7683	0.7	0.655	0.586	0.52	0.493	0.454	0.46	0.446
0.1 µM, coculture fibroblast: H6013	0.904	0.802	0.766	0.737	0.704	0.698	0.678	0.661	0.624
0.1 µM, coculture fibroblast: H6019	0.749	0.6585	0.635	0.59225	0.5463	0.5481	0.508	0.496	0.472
0.1 µM, coculture fibroblast: H6076	0.844	0.776	0.729	0.705	0.666	0.639	0.613	0.597	0.584
0.1 µM, coculture fibroblast: H6231	0.916	0.815	0.7172	0.6554	0.5914	0.559	0.515	0.497	0.47
0.1 µM, coculture fibroblast: HADF	0.909	0.838	0.801	0.771	0.739	0.707	0.688	0.675	0.629
0.1 µM, coculture fibroblast: HCFa	0.8763	0.806	0.759	0.722	0.6852	0.651	0.6128	0.582	0.54
0.1 µM, coculture fibroblast: HCPF	0.88	0.744	0.665	0.6209	0.55537	0.5066	0.4689	0.433	0.416
0.1 µM, coculture fibroblast: HHSteC	0.913	0.8604	0.805	0.747	0.698	0.667	0.623	0.604	0.558
0.1 µM, coculture fibroblast: HMF	0.855	0.757	0.684	0.64	0.591	0.555	0.513	0.496	0.476
0.1 µM, coculture fibroblast: HPFa	0.9486	0.874	0.805	0.747	0.713	0.674	0.616	0.59	0.546
0.1 µM, coculture fibroblast: HUF	0.8159	0.684	0.687	0.571	0.504	0.48	0.435	0.435	0.414
0.1 µM, coculture fibroblast: Hs5	0.796	0.72	0.6683	0.623	0.596	0.537	0.508	0.488	0.462
0.1 µM, coculture fibroblast: Hs27A	0.898	0.838	0.806	0.778	0.723	0.661	0.667	0.652	0.606
0.1 µM, coculture fibroblast: Hs343T	0.819	0.7019	0.639	0.601	0.556	0.507	0.462	0.448	0.432
0.1 µM, coculture fibroblast: WS1	0.768	0.6476	0.621	0.541	0.496	0.472	0.434	0.438	0.426
1 µM, coculture fibroblast: C12385	0.771	0.6623	0.694	0.6	0.541	0.527	0.489	0.5	0.487
1 µM, coculture fibroblast: H6013	0.911	0.829	0.78	0.768	0.737	0.724	0.715	0.693	0.66
1 µM, coculture fibroblast: H6019	0.734	0.671	0.662	0.606	0.576	0.56	0.517	0.513	0.48
1 µM, coculture fibroblast: H6076	0.848	0.751	0.71	0.687	0.652	0.621	0.6	0.589	0.587
1 µM, coculture fibroblast: H6231	0.9112	0.83	0.755	0.704	0.6485	0.612	0.5806	0.5586	0.531
1 µM, coculture fibroblast: HADF	0.892	0.793	0.743	0.704	0.663	0.632	0.608	0.598	0.552
1 µM, coculture fibroblast: HCFa	0.8994	0.807	0.7436	0.682	0.637	0.582	0.547	0.516	0.4638
1 µM, coculture fibroblast: HCPF	0.877	0.76	0.713	0.681	0.629	0.593	0.569	0.546	0.528
1 µM, coculture fibroblast: HHSteC	0.927	0.846	0.806	0.745	0.693	0.664	0.614	0.593	0.548
1 µM, coculture fibroblast: HMF	0.844	0.745	0.696	0.663	0.616	0.575	0.555	0.531	0.516
1 µM, coculture fibroblast: HPFa	0.943	0.8873	0.839	0.781	0.749	0.716	0.66	0.633	0.589
1 µM, coculture fibroblast: HUF	0.879	0.7443	0.757	0.6328	0.5561	0.5326	0.48	0.467	0.449
1 µM, coculture fibroblast: Hs5	0.886	0.775	0.729	0.671	0.63	0.574	0.55	0.531	0.516
1 µM, coculture fibroblast: Hs27A	0.8979	0.847	0.813	0.781	0.735	0.6845	0.6822	0.6712	0.624
1 µM, coculture fibroblast: Hs343T	0.921	0.806	0.741	0.673	0.598	0.538	0.488	0.468	0.436
1 µM, coculture fibroblast: WS1	0.754	0.643	0.6365	0.553	0.508	0.489	0.457	0.46	0.4483
10 µM, coculture fibroblast: C12385	0.756	0.685	0.644	0.594	0.537	0.516	0.487	0.489	0.482
10 µM, coculture fibroblast: H6013	0.8879	0.8061	0.76	0.731	0.694	0.679	0.657	0.64	0.603
10 µM, coculture fibroblast: H6019	0.73	0.634	0.594	0.5557	0.511	0.507	0.474	0.484	0.464
10 µM, coculture fibroblast: H6076	0.905	0.85	0.84	0.84	0.829	0.813	0.797	0.796	0.804
10 µM, coculture fibroblast: H6231	0.931	0.842	0.7765	0.745	0.704	0.676	0.642	0.63	0.629
10 µM, coculture fibroblast: HADF	0.897	0.811	0.7616	0.719	0.691	0.651	0.626	0.614	0.576
10 µM, coculture fibroblast: HCFa	0.888	0.822	0.78	0.739	0.697	0.666	0.635	0.612	0.577
10 µM, coculture fibroblast: HCPF	0.8733	0.787	0.7	0.661	0.608	0.569	0.529	0.505	0.489
10 µM, coculture fibroblast: HHSteC	0.925	0.861	0.818	0.774	0.731	0.703	0.662	0.653	0.614
10 µM, coculture fibroblast: HMF	0.896	0.818	0.755	0.712	0.681	0.645	0.605	0.585	0.569
10 µM, coculture fibroblast: HPFa	0.9429	0.873	0.8135	0.764	0.751	0.726	0.685	0.672	0.64
10 µM, coculture fibroblast: HUF	0.838	0.7024	0.756	0.62	0.554	0.538	0.493	0.502	0.496
10 µM, coculture fibroblast: Hs5	0.834	0.761	0.729	0.698	0.6726	0.628	0.626	0.62217	0.6222
10 µM, coculture fibroblast: Hs27A	0.904	0.862	0.83	0.808	0.77	0.712	0.733	0.718	0.677
10 µM, coculture fibroblast: Hs343T	0.8736	0.776	0.694	0.641	0.576	0.52	0.467	0.444	0.414
10 µM, coculture fibroblast: WS1	0.7668	0.6784	0.672	0.584	0.532	0.514	0.468	0.47	0.461
100 µM, coculture fibroblast: C12385	0.755	0.735	0.695	0.682	0.595	0.56	0.542	0.548	0.546
100 µM, coculture fibroblast: H6013	0.878	0.821	0.769	0.741	0.695	0.679	0.657	0.628	0.582
100 µM, coculture fibroblast: H6019	0.726	0.662	0.6607	0.5965	0.5579	0.5559	0.52149	0.532	0.511
100 µM, coculture fibroblast: H6076	0.8832	0.819	0.802	0.783	0.751	0.721	0.709	0.696	0.692
100 µM, coculture fibroblast: H6231	0.92	0.824	0.7221	0.67162	0.61	0.583	0.547	0.533	0.503
100 µM, coculture fibroblast: HADF	0.8777	0.8418	0.7853	0.734	0.702	0.662	0.636	0.623	0.5732
100 µM, coculture fibroblast: HCFa	0.883	0.829	0.7754	0.7312	0.681	0.64	0.6182	0.592	0.556
100 µM, coculture fibroblast: HCPF	0.845	0.754	0.678	0.643	0.574	0.534	0.51	0.478	0.462
100 µM, coculture fibroblast: HHSteC	0.90683	0.866	0.817	0.7626	0.723	0.6885	0.6559	0.6346	0.59
100 µM, coculture fibroblast: HMF	0.883	0.822	0.757	0.718	0.667	0.624	0.594	0.567	0.548
100 µM, coculture fibroblast: HPFa	0.9403	0.885	0.83	0.777	0.759	0.738	0.699	0.687	0.648
100 µM, coculture fibroblast: HUF	0.8574	0.73	0.747	0.617	0.542	0.524	0.486	0.485	0.471
100 µM, coculture fibroblast: Hs5	0.872	0.785	0.721	0.682	0.642	0.598	0.58	0.563	0.553
100 µM, coculture fibroblast: Hs27A	0.8946	0.822	0.78	0.749	0.704	0.631	0.657	0.65	0.611
100 µM, coculture fibroblast: Hs343T	0.881	0.769	0.701	0.655	0.583	0.536	0.501	0.476	0.449
100 µM, coculture fibroblast: WS1	0.754	0.71	0.608	0.584	0.536	0.505	0.469	0.467	0.448
